The numbers were not newly measured in patent US11896561B2, “Compositions including a cannabinoid and protocatechuic acid” (priority 2021, dated 2024), which cites them from elsewhere.

For the data set the following is noted: range; cited from earlier work.

As to `C=C(C)[C@@H]1CCC(C)=C[C@H]1c1c(O)cc(CCCCC)cc1O` [CBD, Cannabidiol], the bioavailability by inhalation is reported as 11-45%.
